# From PMC10528058
# Protein sequences, listed by entry. Tags and fused reporters are not part of them. Residues count along the entry.
# UniProt P01024, residues 23-1663: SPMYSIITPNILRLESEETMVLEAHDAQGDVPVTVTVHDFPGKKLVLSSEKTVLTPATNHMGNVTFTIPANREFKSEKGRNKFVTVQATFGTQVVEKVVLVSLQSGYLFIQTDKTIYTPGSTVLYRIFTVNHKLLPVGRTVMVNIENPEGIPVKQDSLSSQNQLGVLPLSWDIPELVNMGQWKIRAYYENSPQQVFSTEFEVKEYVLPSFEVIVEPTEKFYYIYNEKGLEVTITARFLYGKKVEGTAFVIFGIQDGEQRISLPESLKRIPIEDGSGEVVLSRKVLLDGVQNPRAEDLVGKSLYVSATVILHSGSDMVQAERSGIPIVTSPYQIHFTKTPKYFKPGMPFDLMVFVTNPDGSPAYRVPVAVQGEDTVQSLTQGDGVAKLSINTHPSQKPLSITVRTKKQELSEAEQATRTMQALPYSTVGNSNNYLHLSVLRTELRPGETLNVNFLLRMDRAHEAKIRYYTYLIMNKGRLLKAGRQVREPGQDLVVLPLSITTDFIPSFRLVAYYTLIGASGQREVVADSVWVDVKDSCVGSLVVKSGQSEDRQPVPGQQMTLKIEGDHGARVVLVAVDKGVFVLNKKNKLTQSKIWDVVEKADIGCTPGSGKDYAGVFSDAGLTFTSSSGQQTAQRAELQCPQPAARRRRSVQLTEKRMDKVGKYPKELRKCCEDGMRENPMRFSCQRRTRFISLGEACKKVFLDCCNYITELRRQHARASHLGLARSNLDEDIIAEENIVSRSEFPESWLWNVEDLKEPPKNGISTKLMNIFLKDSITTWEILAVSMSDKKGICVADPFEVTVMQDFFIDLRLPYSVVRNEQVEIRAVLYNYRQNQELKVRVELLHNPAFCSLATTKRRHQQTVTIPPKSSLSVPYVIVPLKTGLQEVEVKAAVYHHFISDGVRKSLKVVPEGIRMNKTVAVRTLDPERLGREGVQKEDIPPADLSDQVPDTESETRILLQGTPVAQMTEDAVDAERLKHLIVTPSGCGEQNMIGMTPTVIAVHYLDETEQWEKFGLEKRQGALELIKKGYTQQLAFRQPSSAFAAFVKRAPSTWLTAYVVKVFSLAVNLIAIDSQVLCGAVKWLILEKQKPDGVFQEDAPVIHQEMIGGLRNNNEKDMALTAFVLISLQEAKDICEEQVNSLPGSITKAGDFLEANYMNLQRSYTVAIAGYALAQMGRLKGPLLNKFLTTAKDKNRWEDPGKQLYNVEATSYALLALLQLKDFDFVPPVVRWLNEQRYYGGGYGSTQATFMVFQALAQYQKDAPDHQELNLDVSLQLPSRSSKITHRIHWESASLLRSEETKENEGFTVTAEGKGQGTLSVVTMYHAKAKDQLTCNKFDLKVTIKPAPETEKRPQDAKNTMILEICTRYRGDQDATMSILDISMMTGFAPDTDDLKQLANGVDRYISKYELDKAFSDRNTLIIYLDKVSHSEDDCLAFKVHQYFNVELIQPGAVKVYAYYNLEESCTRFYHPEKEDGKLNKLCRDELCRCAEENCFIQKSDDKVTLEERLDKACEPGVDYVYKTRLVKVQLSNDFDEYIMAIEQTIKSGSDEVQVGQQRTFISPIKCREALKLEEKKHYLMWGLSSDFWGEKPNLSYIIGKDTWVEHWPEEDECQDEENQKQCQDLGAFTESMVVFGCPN
# UniProt P01027, residues 25-1663: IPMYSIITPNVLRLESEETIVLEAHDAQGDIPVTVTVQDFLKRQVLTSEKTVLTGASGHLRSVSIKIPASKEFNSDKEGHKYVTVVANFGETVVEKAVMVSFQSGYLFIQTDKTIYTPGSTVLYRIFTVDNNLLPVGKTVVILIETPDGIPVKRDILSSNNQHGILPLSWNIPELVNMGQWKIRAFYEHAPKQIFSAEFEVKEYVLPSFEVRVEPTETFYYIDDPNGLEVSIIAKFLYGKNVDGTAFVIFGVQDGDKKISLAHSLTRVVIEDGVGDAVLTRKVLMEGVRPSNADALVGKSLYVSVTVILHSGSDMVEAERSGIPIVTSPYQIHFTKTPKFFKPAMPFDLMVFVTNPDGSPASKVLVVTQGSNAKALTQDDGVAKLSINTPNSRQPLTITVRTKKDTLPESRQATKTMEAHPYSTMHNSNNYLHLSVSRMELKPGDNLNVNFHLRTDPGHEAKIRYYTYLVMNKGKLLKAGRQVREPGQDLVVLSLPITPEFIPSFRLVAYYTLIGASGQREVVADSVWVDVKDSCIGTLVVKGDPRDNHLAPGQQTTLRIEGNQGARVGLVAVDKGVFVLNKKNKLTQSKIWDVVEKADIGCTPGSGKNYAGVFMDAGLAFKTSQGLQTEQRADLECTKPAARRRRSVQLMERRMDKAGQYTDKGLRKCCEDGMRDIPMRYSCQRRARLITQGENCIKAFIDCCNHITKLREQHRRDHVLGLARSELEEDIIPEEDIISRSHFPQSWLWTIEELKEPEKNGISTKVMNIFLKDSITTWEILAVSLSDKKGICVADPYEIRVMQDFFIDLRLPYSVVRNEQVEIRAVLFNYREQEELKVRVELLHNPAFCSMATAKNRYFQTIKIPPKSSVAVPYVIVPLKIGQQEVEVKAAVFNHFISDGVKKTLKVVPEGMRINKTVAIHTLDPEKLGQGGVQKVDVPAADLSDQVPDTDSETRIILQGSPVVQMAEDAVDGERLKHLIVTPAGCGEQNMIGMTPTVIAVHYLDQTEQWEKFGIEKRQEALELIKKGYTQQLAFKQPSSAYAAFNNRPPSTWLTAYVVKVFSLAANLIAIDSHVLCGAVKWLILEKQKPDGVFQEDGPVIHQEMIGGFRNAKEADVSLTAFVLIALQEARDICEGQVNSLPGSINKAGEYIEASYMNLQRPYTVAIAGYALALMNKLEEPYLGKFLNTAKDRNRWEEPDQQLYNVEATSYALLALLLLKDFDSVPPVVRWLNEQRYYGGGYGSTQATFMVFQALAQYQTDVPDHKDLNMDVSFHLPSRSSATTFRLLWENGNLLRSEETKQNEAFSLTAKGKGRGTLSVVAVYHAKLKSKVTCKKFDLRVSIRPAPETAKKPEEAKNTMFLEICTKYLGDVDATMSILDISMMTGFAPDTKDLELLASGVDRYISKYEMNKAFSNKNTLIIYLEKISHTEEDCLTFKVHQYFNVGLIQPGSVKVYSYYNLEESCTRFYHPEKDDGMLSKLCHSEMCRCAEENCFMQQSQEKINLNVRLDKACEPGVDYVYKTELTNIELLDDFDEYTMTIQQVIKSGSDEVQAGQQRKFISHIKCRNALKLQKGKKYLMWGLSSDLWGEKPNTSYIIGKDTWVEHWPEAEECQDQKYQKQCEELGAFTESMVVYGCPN
# UniProt P99999: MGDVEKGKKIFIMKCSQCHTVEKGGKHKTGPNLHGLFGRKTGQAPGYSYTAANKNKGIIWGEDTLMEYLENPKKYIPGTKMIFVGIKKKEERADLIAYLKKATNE
# UniProt P62897: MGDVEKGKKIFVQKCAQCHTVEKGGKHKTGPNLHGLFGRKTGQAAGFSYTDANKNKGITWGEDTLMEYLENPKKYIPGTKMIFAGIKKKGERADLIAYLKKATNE
# These are yes or no findings as the source states them, for the method shown. For some assays here: In cells and extracts the contact can be indirect. Some entries that bind do so weakly or less than the wild type.
# How the values were obtained:
# [1] = target: Flag-pro-C3 (full-length single-chain human pro-C3 with a Flag-tag at its C-terminal) (human) (UniProt P01024); assay: pull-down; anti-Flag antibody beads incubated with transfected 293 T cell lysate 3 h at 4 °C, washed once, then incubated with lysate of H2O2-treated AC16 cells 3 h at 4 °C, washed 4 times, eluted; Western blot; IP buffer 0.2% NP-40, 10% glycerol, 10 mM Tris-HCl pH 8.0, 100 mM KCl
# [2] = target: complement C3 (mouse, in heart lysate or cytosolic fraction of WT mice after I/R) (mouse (endogenous in C57BL/6 heart)) (UniProt P01027); assay: ELISA; sandwich ELISA: plate coated with polyclonal anti-C3 Ab captures the C3 complex from heart cytosolic fractions of WT and C3-/- mice (1 h ischemia/3 h reperfusion); detected with anti-cytochrome c Ab
Substance,binding [1],binding [2]
"cytochrome c (human, AC16 cell lysate) (from UniProt P99999 1-105)",no binding,–
"cytochrome c (mouse, heart) (from UniProt P62897 1-105)",–,binds
